Results taken from PubChem BioAssay AID248 (DTP/NCI, 2004).
The list is a part of this screen's results and no random one: it is rich in T/C values a quarter to a half above the control, in often repeated tests (any T/C) and in doses without a T/C. Other doses and runs of a compound stand elsewhere. T/C: endpoint of the treated group in % of that of the vehicle group. Some entries give survivors of the animals treated and no T/C: the source files T/C as zero there, which appears to mark a toxic dose or a test without result, not a measured value. Some doses without a T/C left all or most animals alive at the check, yet need not have been tolerated: survival well below the control is almost never listed, so the zero probably covers shortened survival too. Counts of survivors are from the toxicity check (mostly the fifth day) where no day follows; animals may have died later. Schedules are NCI's codes, taken here to give the interval after Q, in days (D) or hours (H), and the number of doses after X. Some schedules carry Z or #; the key to these is not given. For survival time, this PubChem deposit counts one and a half times the control or more as active, and values a quarter to a half above the control carry no call in these data; other NCI protocols may use other cut-offs. Some entries were tested several times; the values are given in rising order.

System: L1210 leukemia ip in BDF1 mice, survival T/C
Assay: NCI In Vivo Anticancer Drug Screen. Data for tumor model L1210 Leukemia (intraperitoneal) in B6D2F1 (BDF1) mice
Details: T/C endpoint: mean survival time, higher T/C = longer survival
[1] = dose: 400.0 mg/kg/injection, schedule: Q04DX003 (ip), vehicle: saline with Tween-80
[2] = dose: 100.0 mg/kg/injection, schedule: Q04DX003 (ip), vehicle: saline with Tween-80
[3] = dose: 200.0 mg/kg/injection, schedule: Q04DX003 (ip), vehicle: saline with Tween-80
[4] = dose: 150.0 mg/kg/injection, schedule: Q01DX001 (ip), vehicle: saline
[5] = dose: 300.0 mg/kg/injection, schedule: Q01DX001 (ip), vehicle: saline

For `CC(C)N(C(=O)/C=C/C(=O)N(C(C)C)C(C)C)C(C)C`, the survivor count [1] was 1 of 3.

`COP(S)(=N/N=C/c1ccccn1)OC` was tested, and the survivor count (dose: 50.0 mg/kg/injection, schedule: Q04DX003 (ip), vehicle: saline with Tween-80) was 0 of 6, the survivor count [2] was 0 of 6 and the survivor count [3] was 0 of 6. For the same compound, the survivor count [1] was 0 of 6.

For `O=C(COc1ccc(Cl)c(Cl)c1)NCc1ccc[n+](Cc2ccc(Cl)cc2S(=O)(=O)F)c1`, the survivor count [1] was 0 of 6.

With `O=N[O-].O=N[O-].O=N[O-].O=N[O-].[Co+2].[NH2-].[NH2-]` the survivor count [1] was 0 of 3.

For `CCc1ccc(N)cc1`, the survivor count (dose: 75.0 mg/kg/injection, schedule: Q01DX001 (ip), vehicle: saline) was 2 of 6, the survivor count [4] was 0 of 6 and the survivor count [5] was 0 of 6.

`OCCOCC12c3ccccc3C3C(c4ccccc41)C32` (stereo not drawn) was tested, and the survivor count (dose: 100.0 mg/kg/injection, schedule: Q04DX002 (ip), vehicle: saline with Tween-80) was 3 of 3.

For `Clc1ccc(P(c2ccc(Cl)cc2)c2ccc(Cl)cc2)cc1`, the survivor count (dose: 200.0 mg/kg/injection, schedule: Q01DX009 (ip), vehicle: saline with Tween-80) was 6 of 6 and the survivor count (dose: 400.0 mg/kg/injection, schedule: Q01DX009 (ip), vehicle: saline with Tween-80) was 6 of 6.

`Nc1nc(=S)[nH][nH]1` was tested, and the survivor count (dose: 400.0 mg/kg/injection, schedule: Q01DX001 (ip), vehicle: saline with Tween-80) was 2 of 6 and the survivor count [1] was 1 of 6.

`CS(=O)(=O)C(Cl)(Cl)S(C)(=O)=O` was tested, and the survivor count [2] was 2 of 6, the survivor count [3] was 0 of 6 and the survivor count [1] was 0 of 6.

`CNC(=S)Nc1ccccc1` was tested, and the survivor count (dose: 400.0 mg/kg/injection, schedule: Q04DX003 (ip), vehicle: carboxymethylcellulose (CMC)) was 1 of 6.

With `CCCCCCN=C(N)c1ccc(NC(=O)c2ccc(C(=O)Nc3ccc(C(N)=NCCCCCC)cc3)cc2)cc1` the survivor count (dose: 25.0 mg/kg/injection, schedule: Q01DX Z (ip), vehicle: methylcellulose (MC)) was 0 of 6, the survivor count (dose: 50.0 mg/kg/injection, schedule: Q01DX Z (ip), vehicle: methylcellulose (MC)) was 0 of 6 and the survivor count (dose: 100.0 mg/kg/injection, schedule: Q01DX Z (ip), vehicle: methylcellulose (MC)) was 0 of 6. The survivor count (dose: 200.0 mg/kg/injection, schedule: Q01DX Z (ip), vehicle: methylcellulose (MC)) was 0 of 6.

`COC1C(CO)OC(n2cnc3c(=S)nc(N)[nH]c32)C1O` (stereo not drawn) was tested, and the T/C (dose: 100.0 mg/kg/injection, schedule: Q01DX009 (ip), vehicle: carboxymethylcellulose (CMC)) was 142 % of control, the T/C (dose: 177.0 mg/kg/injection, schedule: Q01DX001 (ip), vehicle: carboxymethylcellulose (CMC)) was 125 % of control and the T/C (dose: 200.0 mg/kg/injection, schedule: Q01DX001 (ip), vehicle: carboxymethylcellulose (CMC)) was 132 % of control. The T/C (dose: 200.0 mg/kg/injection, schedule: Q01DX005 (ip), vehicle: saline) was 135 and 142 % of control, the T/C (dose: 266.0 mg/kg/injection, schedule: Q01DX001 (ip), vehicle: carboxymethylcellulose (CMC)) was 144 % of control and the T/C (dose: 600.0 mg/kg/injection, schedule: Q01DX001 (ip), vehicle: carboxymethylcellulose (CMC)) was 144 % of control.

`CCc1n[nH]c(=S)n1N` was tested, and the survivor count (dose: 100.0 mg/kg/injection, schedule: Q04DX003 (ip), vehicle: Klucel (hydroxypropylcellulose) (HPC)) was 0 of 6, the survivor count (dose: 200.0 mg/kg/injection, schedule: Q04DX003 (ip), vehicle: Klucel (hydroxypropylcellulose) (HPC)) was 0 of 6 and the survivor count (dose: 400.0 mg/kg/injection, schedule: Q04DX003 (ip), vehicle: Klucel (hydroxypropylcellulose) (HPC)) was 0 of 6.

For `Cc1ccccc1N1C(N)=NC(N)=NC1(C)C`, the survivor count (dose: 100.0 mg/kg/injection, schedule: Q01DX009 (ip), vehicle: Klucel (hydroxypropylcellulose) (HPC)) was 0 of 6, the survivor count [4] was 0 of 6 and the survivor count (dose: 200.0 mg/kg/injection, schedule: Q01DX009 (ip), vehicle: Klucel (hydroxypropylcellulose) (HPC)) was 0 of 6. The survivor count [5] was 0 of 6 and the survivor count (dose: 400.0 mg/kg/injection, schedule: Q01DX009 (ip), vehicle: Klucel (hydroxypropylcellulose) (HPC)) was 0 of 6.

With `CC(=O)N(C)c1cc(N)ccc1OCc1ccccc1` the survivor count [1] was 3 of 6.
